Results as given in PubChem BioAssay AID588590 (National Center for Advancing Translational Sciences (NCATS), 2011).
The campaign covered roughly 390,000 compounds. About 4,000 (1%) were called active. This list was built around the results that the source calls inconclusive (neither active nor inactive); the mix of calls is not that of the screen. Calls follow the shape of the dose curve; as a rule, active = well fitted inhibition curve with a large enough effect; inconclusive = small, poorly fitted or top-dose-only effect, or another doubt; inactive = no such curve, though single readings can be large or run the other way. A potency beside an inconclusive call is a rough fit, not a confirmed value.

Sequences of proteins named here, by UniProt entry; tags and fusion partners are left off. A change or cut given only in a name is not applied to a line headed by its entry.
UniProt Q9UNA4: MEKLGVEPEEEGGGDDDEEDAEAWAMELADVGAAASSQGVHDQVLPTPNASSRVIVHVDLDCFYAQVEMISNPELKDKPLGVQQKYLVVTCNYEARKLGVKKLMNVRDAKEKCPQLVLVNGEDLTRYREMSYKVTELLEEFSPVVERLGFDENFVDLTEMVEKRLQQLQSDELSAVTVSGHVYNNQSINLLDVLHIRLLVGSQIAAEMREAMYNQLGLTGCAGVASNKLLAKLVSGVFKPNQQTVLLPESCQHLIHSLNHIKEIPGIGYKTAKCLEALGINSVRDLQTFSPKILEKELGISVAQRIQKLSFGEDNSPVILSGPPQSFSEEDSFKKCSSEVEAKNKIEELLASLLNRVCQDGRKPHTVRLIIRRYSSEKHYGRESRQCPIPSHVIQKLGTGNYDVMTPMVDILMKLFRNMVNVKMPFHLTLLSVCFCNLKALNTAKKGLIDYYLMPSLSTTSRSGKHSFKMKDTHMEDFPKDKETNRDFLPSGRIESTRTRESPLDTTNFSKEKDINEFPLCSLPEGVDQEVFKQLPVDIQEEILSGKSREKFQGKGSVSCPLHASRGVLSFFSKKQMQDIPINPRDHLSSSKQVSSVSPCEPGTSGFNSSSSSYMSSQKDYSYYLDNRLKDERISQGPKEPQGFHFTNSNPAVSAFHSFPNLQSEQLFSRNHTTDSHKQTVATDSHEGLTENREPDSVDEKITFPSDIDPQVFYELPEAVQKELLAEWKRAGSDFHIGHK

Biological target: DNA polymerase iota (Homo sapiens) (UniProt Q9UNA4)
Assay: qHTS for Inhibitors of Polymerase Iota
Conditions: Pol iota fluorescent replication assay, 10 min; series mostly up to 115 µM; activity, negative = inhibition: at the top concentration
Outline: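 Fluorescent replication assay read twice, at 0 min and 10 min after adding 50 nM (final) substrate. Enzyme (10 nM) and compounds were first incubated 15 min at room temperature; enzyme-free buffer wells were negative controls.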
Potency is read from the fitted curve at half-maximal effect.

activity, negative = inhibition, inactive:
COc1ccc(CNC(=O)Cn2ncc3c([nH]c4ccccc43)c2=O)cc1 14.1%
CCn1nnc2cc(C(=O)Nc3cc(Cl)ccc3C)ccc21 -3.78%
C=CCn1c(SCc2c(C)noc2C)nc2cc(C(=O)O)ccc2c1=O 22.5%
CCOc1ccc(C(=O)NCC(=O)NC(C)CCc2ccccc2)cc1OCC (stereo not drawn) 22.7%
CCCC12CN3CC(CCC)(CN(C1)C3c1ccccc1)C2=O (stereo not drawn) 11.2%
Cc1cc(=O)[nH]c(N2CCCNCC2)n1 3.17%
COc1ccccc1/C=C/C(=O)c1cc(Br)ccc1OC(=O)c1ccco1 -5.8%
O=c1onc2n1-c1cc(Br)ccc1OC2 -7.46% [at 58.9 µM]
O=C(c1ccccc1NS(=O)(=O)c1ccc(Br)cc1)N1CCOCC1 2.78%
CC(CNC(=O)c1ccc(CSc2nc3ccncc3n2Cc2ccccc2)cc1)c1ccccc1 (stereo not drawn) 9.53%
O=C(NC(=S)NC12CC3CC(CC(C3)C1)C2)c1ccc(F)cc1 10.7%
C(=C\c1ccccc1)/C=N/Nc1ccc2nncn2n1 23.6%
COc1ccc(-c2nn(-c3ccccc3)cc2C2CC(c3cccs3)=NN2C(=O)CCC(=O)O)cc1 (stereo not drawn) -14.8%
Cc1ccc(/C(N)=N/OC(=O)c2cccc(Cn3cc(C(F)(F)F)ccc3=O)c2)cc1 -23.7% [at 58.9 µM]
CN(C)c1ccc(-c2cc(C3C4C=CCCC4(C)C(=O)N3Cc3ccccc3)ccc2F)cc1 (stereo not drawn) 32.6%

Grouped by structure, the compounds so far containing a COOH group (2)
activity, negative = inhibition, inactive:
C=CCn1c(SCc2c(C)noc2C)nc2cc(C(=O)O)ccc2c1=O 22.5%
COc1ccc(-c2nn(-c3ccccc3)cc2C2CC(c3cccs3)=NN2C(=O)CCC(=O)O)cc1 (stereo not drawn) -14.8%

Following part.

Potency, inconclusive:
CCn1c(SCC(=O)c2[nH]c(C)c(C(C)=O)c2C)nnc1-c1ccccc1 39.8 µM [inhibitor, single point]
CC(=O)/C(N=Nc1nc2c([nH]1)c(=O)n(C)c(=O)n2C)=C(\C)O 22.4 µM [inhibitor, partial curve, poor fit]
Cn1c(=O)cc(C(=O)N/N=C/c2ccc(F)cc2)[nH]c1=O 3.55 µM [inhibitor, partial curve, poor fit]
Nc1cc2c(cc1[N+](=O)[O-])OCO2 14.1 µM [inhibitor, full curve]
CCCc1nnc(NC(=O)c2nc(S(=O)(=O)Cc3cccc(C)c3)ncc2Cl)s1 25.1 µM [inhibitor, single point]
CC(=O)c1ccc(NC(=O)c2ccc(-c3ccc(Cl)cc3)o2)cc1 79.4 µM [inhibitor, single point]
COc1ccc(CN(CC(O)COc2cccc3[nH]cc(C)c23)C(C)(C)C)cc1 (stereo not drawn) 31.6 µM [inhibitor, single point]
CN=Cc1nc(-c2ccccc2)oc1O 126 µM [inhibitor, single point]
CC(=O)c1ccc(NC(=O)c2ccc(COc3ccccc3[N+](=O)[O-])o2)cc1 79.4 µM [inhibitor, partial curve]
N=c1c(C(=O)NCC2CCCO2)cc2c(=O)n3ccccc3nc2n1Cc1ccc(Cl)cc1 (stereo not drawn) 89.1 µM [inhibitor, single point]
Cc1ccc(Cn2c(=N)n(CC(O)c3ccco3)c3ccccc32)cc1 (stereo not drawn) 112 µM [inhibitor, partial curve, poor fit]
COc1ccc(C2=NCC(CSc3nnnn3C)S2)cc1 (stereo not drawn) 22.4 µM [inhibitor, single point]
O=C(Nc1ccc2c(c1)nc1n2CCN(C2CCCCC2)C1)c1ccco1 11.2 µM [inhibitor, partial curve, poor fit]
COc1ccc2[nH]cc(CCNS(=O)(=O)c3ccc(C)cc3)c2c1 63.1 µM [inhibitor, partial curve, poor fit]
CCc1ccc([C@@H]2CC=C(C(=O)O)[C@H](c3cccc(Cl)c3)N2S(=O)(=O)c2ccc(C)cc2)cc1 39.8 µM [inhibitor, single point]
Cc1cccc(C)c1NC(=O)CCCN1C(=O)C(c2ccccc2)Oc2cccnc21 (stereo not drawn) 89.1 µM [inhibitor, single point]
Cc1ccc2nc(CSc3nc(C)ccc3C#N)[nH]c2c1 7.08 µM [inhibitor, full curve, poor fit]
CCCCCc1nc(N)c(C#N)c(-c2ccco2)c1CCCC 10 µM [inhibitor, partial curve, poor fit]
c1ccc(Oc2ncnc3ccccc23)cc1 89.1 µM [inhibitor, single point]
CCN(Cc1ccccc1)C(=O)Cn1c(=O)n(-c2ccc(Cl)cc2)c(=O)c2c(C)c(C(=O)N(C)C)sc21 89.1 µM [inhibitor, single point]
O=C(c1ccc2c(c1)OCO2)N1CCC2(CC1)Oc1ccc(F)cc1C(=O)C21CC(c2ccccc2)=NO1 (stereo not drawn) 31.6 µM [inhibitor, single point]
CCCCN(C)S(=O)(=O)c1ccc(C(=O)Nc2sc3c(c2C(N)=O)CC(C)(C)NC3(C)C)cc1 89.1 µM [inhibitor, single point]
C/C(=N\NC(=O)c1cc2ccccc2cc1O)c1ccc2c(c1)OCO2 50.1 µM [inhibitor, partial curve]
COc1ccccc1N1CCN(C(=O)/C=C/c2ccc3c(c2)OCO3)CC1 89.1 µM [inhibitor, partial curve, poor fit]
CCOC(=O)C1=C(O)/C(=C/c2ccc(OCC(=O)O)c(OCC)c2)SC1=Nc1ccc(OC)cc1 39.8 µM [inhibitor, single point]
O=C(Cn1ncc2c3ccccc3n(Cc3cccc(Cl)c3)c2c1=O)NCc1cccs1 89.1 µM [inhibitor, single point]
COc1ccc(C2=NOC(Cn3nc(C(=O)NCc4cccc(C(F)(F)F)c4)cc3-c3ccccc3)C2)cc1 (stereo not drawn) 44.7 µM [inhibitor, single point]
COc1ccc(-c2cc3ccccc3cn2)cc1 89.1 µM [inhibitor, partial curve, poor fit]
